Binding data for 1 substance are collected here from article PMC6617969.

The assay addresses T1, His6‐DnaA‐FLAG (E. coli) (UniProt P03004).
T1 sequence: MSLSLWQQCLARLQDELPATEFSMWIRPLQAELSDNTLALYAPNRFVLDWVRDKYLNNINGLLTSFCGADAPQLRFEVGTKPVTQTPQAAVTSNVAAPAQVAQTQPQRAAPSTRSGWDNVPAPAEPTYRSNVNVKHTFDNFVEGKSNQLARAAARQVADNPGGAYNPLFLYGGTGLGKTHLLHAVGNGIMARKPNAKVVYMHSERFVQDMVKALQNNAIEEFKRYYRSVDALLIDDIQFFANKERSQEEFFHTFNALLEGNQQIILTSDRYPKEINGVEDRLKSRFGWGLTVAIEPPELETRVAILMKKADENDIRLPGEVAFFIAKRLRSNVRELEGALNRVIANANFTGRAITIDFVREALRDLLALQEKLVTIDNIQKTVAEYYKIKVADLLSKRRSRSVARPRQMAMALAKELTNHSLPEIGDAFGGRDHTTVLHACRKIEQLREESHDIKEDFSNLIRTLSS
Briefly: pull-down; affinity tagged pull‐down of purified proteins; 1 × TBS containing 1 mM PMSF; western blotting with antibodies against FLAG or Myc; both purified.

No constants are given. Whether binding was seen depends on the method and setting. Tags and fused reporters may be left off the sequences shown.

For “Myc‐tagged MSMEG_2415 (from UniProt A0QV17 1-192)”, the binding entry was “no binding”.
